Earlier results on two compounds are cited in article PMC11232401, “Characterization of antimalarial activity of artemisinin-based hybrid drugs” (Antimicrobial Agents and Chemotherapy, 2024).

For this data set, the system named is J774 cell line. Also noted: method as in PMID 31290221, PMID 34832911, PMID 38559731. As to conditions: CC50/IC50, CC50 in J774 cell line; cited from earlier work.

The structures appear in SMILES notation.

Consider `COCCOCCOCCOCCn1c(-c2ccc(-n3cc(-c4ccc(OC5OC6OC7(C)CCC8C(C)CCC(C5C)C68OO7)cc4)nn3)cc2)nc2ccccc21` (centres unmarked) [Hybrid 1], for which the Selectivity index is listed as 33333.

On to `CC1CCC2C(C)C(OC(=O)CCC(=O)OCCNc3ccnc4cc(Cl)ccc34)OC3OC4(C)CCC1C32OO4` (centres unmarked) [Hybrid 2], for which the Selectivity index was 6378.
